From PubChem BioAssay AID588519 (ICCB-Longwood Screening Facility, Harvard Medical School, 2011)
Some of the results follow. Some results for these compounds are left out of this collection, so the calls shown say nothing about other tests.

molecular target: Genome polyprotein (Poliovirus type 1 (strain Mahoney)) (UniProt P03300); assay: inhibitors of poliovirus polymerase RNA elongation – biochemical, fluorescence polarization, total intensity, primary screen (AID 588519); conditions: stronger effect = lower value; % elongation: measured here: total intensity read-out, compound at 16.7 µg/mL; z-score: measured here: FP z-score

Structure (SMILES)	% elongation [%]	z-score
CCCCOc1ccccc1C(=O)NCC1(N(C)C)CCCCC1	109	-1
CN(C)c1ccc(C(=O)NCC2(N(C)C)CCCCC2)cc1	107	-0.2
CN(C)C1(CNC(=O)c2ccccc2[N+](=O)[O-])CCCCC1	107	0.8
CCOc1cccc(C(=O)NCC2(N(C)C)CCCCC2)c1	107	0
COc1ccc(OC)c(C=C(C#N)C#N)c1	97	-0.6
O=C(NCC1(N2CCOCC2)CCCCC1)c1cnc(Cl)c(Cl)c1	104	-0.1
CN(C)C1(CNC(=O)c2ccccc2F)CCCCC1	112	0.8
CN(C)C1(CNC(=O)c2cccc(Cl)c2)CCCCC1	106	-0.3
CC(C)COc1ccc(C(=O)NCC2(N(C)C)CCCCC2)cc1	105	-0.8
O=C(OC1CN2CCC1CC2)C(CO)(c1ccccc1)c1ccccc1 (stereo not drawn)	110	0.5
COc1cccc(C(=O)NCC2(N3CCOCC3)CCCCC2)c1	108	0
CC(C)Oc1ccc(C(=O)NCC2(N(C)C)CCCCC2)cc1	110	-0.4
O=C(NCC1(N2CCCCC2)CCCCC1)c1ccc2c(c1)OCCO2	108	-0.6
COc1cc(C(=O)NCC2(N(C)C)CCCCC2)cc(OC)c1OC	112	1.1
Cc1cccc(C(=O)NCC2(N(C)C)CCCCC2)c1	106	0
CN1C2CCC1CC(OC(=O)C(O)(c1ccccc1)c1ccccc1)C2 (stereo not drawn)	103	-0.8
CN(C)C1(CNC(=O)c2ccncc2)CCCCC1	108	0.4
COc1ccc(C(=O)NCC2(N(C)C)CCCCC2)cc1Cl	103	-0.9
N#CC(C#N)=Cc1ccccc1	83	-1.8
